For one molecule, binding results are on record in paper PMC2233675.

No constants are given. Whether binding was seen depends on the method and setting. In cells and extracts the contact can be indirect. Some entries that bind do so weakly or less than the wild type. Tags and fused reporters may be left off the sequences shown.

The test addresses T1, Drosophila Rad9, FLAG-tagged (Drosophila) (UniProt O96533).
T1 sequence: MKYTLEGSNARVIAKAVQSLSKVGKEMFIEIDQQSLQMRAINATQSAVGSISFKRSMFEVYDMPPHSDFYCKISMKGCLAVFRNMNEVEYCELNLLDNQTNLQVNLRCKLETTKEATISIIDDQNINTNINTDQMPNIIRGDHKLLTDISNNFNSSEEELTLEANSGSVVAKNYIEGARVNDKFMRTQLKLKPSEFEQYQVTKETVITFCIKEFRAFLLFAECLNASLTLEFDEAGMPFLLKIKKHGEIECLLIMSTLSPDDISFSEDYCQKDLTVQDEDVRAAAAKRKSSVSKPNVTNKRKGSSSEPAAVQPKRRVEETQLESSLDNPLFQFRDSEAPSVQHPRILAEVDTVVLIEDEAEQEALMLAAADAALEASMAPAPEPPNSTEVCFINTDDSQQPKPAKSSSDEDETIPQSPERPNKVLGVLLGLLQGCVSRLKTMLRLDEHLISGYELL
As to the kind of experiment: co-IP; cleared lysate of 10 ovary pairs in IP buffer (50 mM Tris pH 8, 150 mM NaCl, 1 mM CaCl2, 0.1% Tween-20, protease and phosphatase inhibitors); anti-FLAG M2 on Protein A/G agarose, 4 °C, 2 hours; Western blot for FLAG and HA.

B1: Drosophila Brca2 (CG30169), HA-tagged (protein, UniProt Q9W157 1-971)
chain: MDQNGASGSHPNRLSQGRGAHARERGATVSAAANRSNIIDEMAKICEADRQTFAIARRTRGHERLAVDNSDFVAVEDLILSYAEPTPEDQVEMIMSDFCSSPTYAEDEDEPSHESEPWFRFRNKRIRTYSRKRDPKSHKAVQNEKRRGSSGLSVQRDLNTSFTSMACDFDASSQKIHEVLLNLSQYFSATATASGPTPVPSQIDLPTEARQDSGDECFNAELENLRDDLLQSGFTFEASFYENEHEQEGPGTMADTIYGDSMQSVPTTRLRLESGKRNVWSDADSTLKKADVEIAENKKLLMGQTQAKNVDIEENTNFILEGIPLSEWLTPMELPEISKDVIKHIPDKKLKLEPSSQKEQKSSKDSNASKVRGASKQSCDINTKNEGTTILDQPNAAEQENLLNDGELLEEFLFNDWQPMQCSNGPSTSKNAIQGPKENINSINLDDKEQPEKQTPNKSQTISSHQLNGIRKKSFKFIEVSEEMKIKGEEFVDKVVSGLYHFSHKCNLRTEEYSDNHSQVMESTQCAEFKSAPSKPIEILDGKETYNAIAKVDVGEINGKFSPLNNDTIAEPEFCGFRTASNKAIPISEKMKIKTAEFMAEFQSKETIQQNDYLVHQPNDKPTSVGLDTALKRSIESSEEMRSKASKLVVVDTTMREPHQPTLDPVCRDLNESQFFGFRTASNKAIEITEAMEKRGAMFLAQSKATDQLNGWQPSDFPDVLPTSPNNEIHSINVENNKAVNTKTVSETEFFGFRTASNKGIVISENTKIKVAQFMSEFQAADASTDSNQPTVISEESRNIDAKFVDEAAAEDSANKPTFCNVQSLKNTSDIEHFKHDFFVEHSAKEEHPLCSQPLVRTPRRSQEIHSSLSQLAGKSPLDQATKKSVIARRNLLSLKRKRKIILSTETSTSCALPTMERFAPKPSSTSTPLADRDLNRSKDCTKNRQDAEDMSPICMQPKKSRRLGLSRSRY
For the molecule B1, the binding result is “binds”.
